Measurements reported in article PMC7755977.
No constants are given. Whether binding was seen depends on the method and setting. In cells and extracts the contact can be indirect. Some binding calls cover weakened binding; strength is not graded here.

Target: Yes-associated protein1, P46937
Assay: co-IP; 5637 cells transfected with expression vectors; cell lysates immunoprecipitated with an anti-Flag antibody, Western blot with indicated antibodies; cells treated with miR-497 or miR-195 mimic or inhibitor
Conditions: remark: other sources report otherwise

B1: SMAD3, P84022 1-425 (protein)
chain: MSSILPFTPPIVKRLLGWKKGEQNGQEEKWCEKAVKSLVKKLKKTGQLDELEKAITTQNVNTKCITIPRSLDGRLQVSHRKGLPHVIYCRLWRWPDLHSHHELRAMELCEFAFNMKKDEVCVNPYHYQRVETPVLPPVLVPRHTEIPAEFPPLDDYSHSIPENTNFPAGIEPQSNIPETPPPGYLSEDGETSDHQMNHSMDAGSPNLSPNPMSPAHNNLDLQPVTYCEPAFWCSISYYELNQRVGETFHASQPSMTVDGFTDPSNSERFCLGLLSNVNRNAAVELTRRHIGRGVRLYYIGGEVFAECLSDSAIFVQSPNCNQRYGWHPATVCKIPPGCNLKIFNNQEFAALLAQSVNQGFEAVYQLTRMCTIRMSFVKGWGAEYRRQTVTSTPCWIELHLNGPLQWLDKVLTQMGSPSIRCSSVS
For B1, the binding was “binds”.
